# Data reported in doi:10.1101/2023.09.18.558310.
# The chains behind the UniProt entries cited, without tags or fusion partners. Where a name states a change or a piece, a line headed by the entry shows the natural chain unless it says otherwise.
# UniProt Q9CAJ0: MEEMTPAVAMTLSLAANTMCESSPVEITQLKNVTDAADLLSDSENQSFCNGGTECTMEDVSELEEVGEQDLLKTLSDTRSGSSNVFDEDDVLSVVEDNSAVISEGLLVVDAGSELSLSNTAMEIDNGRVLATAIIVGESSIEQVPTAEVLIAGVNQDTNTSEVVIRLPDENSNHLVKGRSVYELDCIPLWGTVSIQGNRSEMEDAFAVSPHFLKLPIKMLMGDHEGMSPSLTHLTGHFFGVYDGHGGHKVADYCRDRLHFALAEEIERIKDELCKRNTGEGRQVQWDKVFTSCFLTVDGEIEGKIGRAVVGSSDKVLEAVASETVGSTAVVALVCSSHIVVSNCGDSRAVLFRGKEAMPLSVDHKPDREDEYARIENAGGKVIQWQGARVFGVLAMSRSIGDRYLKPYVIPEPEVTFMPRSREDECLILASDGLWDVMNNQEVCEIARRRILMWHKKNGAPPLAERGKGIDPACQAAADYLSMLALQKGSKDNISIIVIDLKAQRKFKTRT
# B1: CAR1-AD (protein, UniProt Q9FHP6 1-168)
# chain: MENLVGLLRIHVKRGVNLAIRDISSSDPYIVVHCGKQKLKTRVVKHSVNPEWNDDLTLSVTDPNLPIKLTVYDYDLLSADDKMGEAEFHIGPFIEAIKFAHQLGPGLPNGTIIKKIEPSRKNCLSESSHIVLNQGKIVQNMFLRLQHVECGEVELQLEWIDVPGSRGI
# B2: CAR1-YFPC (protein, UniProt Q9FHP6 1-168)
# chain: B1 chain
# B3: CAR1-mCherry (protein, UniProt Q9FHP6 1-168)
# chain: B1 chain
# Experiments:
# HAB1-BD (Arabidopsis) = HAB1-BD (Arabidopsis) (UniProt Q9CAJ0); experiment: two-hybrid
# YFPN-HAB1 (Arabidopsis) = YFPN-HAB1 (Arabidopsis) (UniProt Q9CAJ0); experiment: split reporter
# HAB1-mGFP5 (Arabidopsis) = HAB1-mGFP5 (Arabidopsis) (UniProt Q9CAJ0); experiment: co-IP
binder,measurement,setting,value
B1,binding,HAB1-BD (Arabidopsis),binds
B2,binding,YFPN-HAB1 (Arabidopsis),binds
B3,binding,HAB1-mGFP5 (Arabidopsis),binds

# Results are given in words; binding and its absence hold for the method and conditions named. A result given as binding can be weak or reduced; the word gives no strength. For part of these data: Where a sequence is shown, tags or fusion partners need not be part of it. For part of these data: Binding seen in cells or lysates may run through a third protein.
